# In article PMC8384837:
# Positions count from the first letter of the chain named. This is one part of the list. For some of these results: At the low end of the ranking the order means little. For some of these results: Construct or isoform of the protein are uncertain.
# Tests used:
# Settings in all cases: yeast three-hybrid, YBZ-1, SC-Leu-His + 0.5 mM 3-AT, 4 days
# [1] = biological target: T1, PUM1 PUF domain R1-QFR R2-VFQ R7-NPG S863Q + R864F + Q867R + N899V + Y900F + S1079N + N1080P + E1083G (UniProt Q14671)
# T1 sequence: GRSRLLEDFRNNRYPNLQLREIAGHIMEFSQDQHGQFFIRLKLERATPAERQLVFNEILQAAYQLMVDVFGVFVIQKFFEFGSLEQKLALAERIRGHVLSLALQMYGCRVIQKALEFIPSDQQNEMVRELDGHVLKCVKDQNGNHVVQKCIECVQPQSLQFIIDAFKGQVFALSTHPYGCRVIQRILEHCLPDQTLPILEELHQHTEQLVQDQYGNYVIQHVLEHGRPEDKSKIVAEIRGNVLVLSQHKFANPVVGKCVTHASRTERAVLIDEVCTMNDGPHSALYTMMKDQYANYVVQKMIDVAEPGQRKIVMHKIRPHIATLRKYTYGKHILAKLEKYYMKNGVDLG
# [2] = biological target: T2, PUM1 PUF domain R2-VFQ R3-THE R4-TFR N899V + Y900F + C935T + R936H + Q939E + N971T + H972F + Q975R (UniProt Q14671)
# T2 sequence: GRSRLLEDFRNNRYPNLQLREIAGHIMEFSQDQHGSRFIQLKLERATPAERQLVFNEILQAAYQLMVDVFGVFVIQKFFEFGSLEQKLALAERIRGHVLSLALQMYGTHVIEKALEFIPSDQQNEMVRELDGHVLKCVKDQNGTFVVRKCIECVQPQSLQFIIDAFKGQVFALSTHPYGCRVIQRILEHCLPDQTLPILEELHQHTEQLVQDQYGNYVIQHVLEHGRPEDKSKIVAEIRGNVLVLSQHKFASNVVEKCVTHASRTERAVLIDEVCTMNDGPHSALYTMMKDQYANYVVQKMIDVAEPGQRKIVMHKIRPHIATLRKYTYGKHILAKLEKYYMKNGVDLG
# [3] = biological target: T3, PUM1 PUF domain R5-PHQ R6-SWD C1007P + R1008H + N1043S + Y1044W + Q1047D (UniProt Q14671)
# T3 sequence: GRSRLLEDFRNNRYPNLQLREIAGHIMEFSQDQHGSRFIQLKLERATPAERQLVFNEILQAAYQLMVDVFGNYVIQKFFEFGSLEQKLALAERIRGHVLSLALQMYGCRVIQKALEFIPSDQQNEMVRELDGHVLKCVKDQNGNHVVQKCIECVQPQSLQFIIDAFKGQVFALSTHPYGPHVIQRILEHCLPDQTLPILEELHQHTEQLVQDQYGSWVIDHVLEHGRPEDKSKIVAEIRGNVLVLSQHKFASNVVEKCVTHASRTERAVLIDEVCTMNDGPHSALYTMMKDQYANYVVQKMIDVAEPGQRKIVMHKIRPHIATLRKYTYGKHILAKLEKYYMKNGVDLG
# [4] = biological target: T4, PUM1 PUF domain R3-THE R4-TFR R7-NPG C935T + R936H + Q939E + N971T + H972F + Q975R + S1079N + N1080P + E1083G (UniProt Q14671)
# T4 sequence: T2 sequence with V72N, F73Y, S252N, N253P, E256G
# [5] = biological target: T5, PUM1 PUF domain R3-THE R4-TFR R7-NPG C935T + R936H + Q939E + N971T + H972F + Q975R + S1079N + N1080P + E1083G (Homo sapiens) (UniProt Q14671)
# T5 sequence: T2 sequence with V72N, F73Y, S252N, N253P, E256G
# [6] = biological target: T6, PUM1 PUF domain R5-PHQ R6-SWD C1007P + R1008H + N1043S + Y1044W + Q1047D (Homo sapiens) (UniProt Q14671)
# T6 sequence: T3 sequence
# [7] = biological target: T7, PUM1 PUF domain R6-SWD R7-NPG N1043S + Y1044W + Q1047D + S1079N + N1080P + E1083G (Homo sapiens) (UniProt Q14671)
# T7 sequence: T3 sequence with P180C, H181R, S252N, N253P, E256G
sequence,measurement,setting,value
GGCUAGAACUAGUGGAUCCCCCGGCGCCCGGCGGCUCGAGCCCGGGUAAGUUAAAGCAGUCUGCAUGCCGCCGGGCGCCAUGCCUGCAGGUCGACUCUAGAAAACAUG,binding signal (log2 enrichment (interaction score)),[1],-4.53
same,binding signal (log2 enrichment (interaction score)),[2],-5.54
same,binding signal (log2 enrichment (interaction score)),[3],< -7.81
GGCUAGAACUAGUGGAUCCCCCGGCGCCCGGCGGCUCGAGCCCGGGUAAGUAGAAGUAGUCUGCAUGCCGCCGGGCGCCAUGCCUGCAGGUCGACUCUAGAAAACAUG,binding signal (log2 enrichment (interaction score)),[1],-4.86
same,binding signal (log2 enrichment (interaction score)),[2],-5.74
same,binding signal (log2 enrichment (interaction score)),[4],-2.12
same,binding signal (log2 enrichment (interaction score)),[3],< -8.51
GGCUAGAACUAGUGGAUCCCCCGGCGCCCGGCGGCUCGAGCCCGGGUAAGUGGAUAUAGUCUGCAUGCCGCCGGGCGCCAUGCCUGCAGGUCGACUCUAGAAAACAUG,binding signal (log2 enrichment (interaction score)),[1],-5.67
same,binding signal (log2 enrichment (interaction score)),[2],-5.49
same,binding signal (log2 enrichment (interaction score)),[5],-1.69
same,binding signal (log2 enrichment (interaction score)),[6],-1.12
GGCUAGAACUAGUGGAUCCCCCGGCGCCCGGCGGCUCGAGCCCGGGUAAGUUGCAGCGGUCUGCAUGCCGCCGGGCGCCAUGCCUGCAGGUCGACUCUAGAAAACAUG,binding signal (log2 enrichment (interaction score)),[1],-4.94
same,binding signal (log2 enrichment (interaction score)),[2],-6.33
same,binding signal (log2 enrichment (interaction score)),[4],-2.3
same,binding signal (log2 enrichment (interaction score)),[7],-1.96
GGCUAGAACUAGUGGAUCCCCCGGCGCCCGGCGGCUCGAGCCCGGGUAAGUUGAAACAGUCUGCAUGCCGCCGGGCGCCAUGCCUGCAGGUCGACUCUAGAAAACAUG,binding signal (log2 enrichment (interaction score)),[1],-6.02
same,binding signal (log2 enrichment (interaction score)),[2],-6.07
same,binding signal (log2 enrichment (interaction score)),[4],< -2.76
same,binding signal (log2 enrichment (interaction score)),[3],-7.37
GGCUAGAACUAGUGGAUCCCCCGGCGCCCGGCGGCUCGAGCCCGGGUAAGUGUGAAUCGUCUGCAUGCCGCCGGGCGCCAUGCCUGCAGGUCGACUCUAGAAAACAUG,binding signal (log2 enrichment (interaction score)),[1],-5.95
same,binding signal (log2 enrichment (interaction score)),[2],-5.81
same,binding signal (log2 enrichment (interaction score)),[3],-6.8
GGCUAGAACUAGUGGAUCCCCCGGCGCCCGGCGGCUCGAGCCCGGGUAAGUGGGAACAGUCUGCAUGCCGCCGGGCGCCAUGCCUGCAGGUCGACUCUAGAAAACAUG,binding signal (log2 enrichment (interaction score)),[1],-5.74
same,binding signal (log2 enrichment (interaction score)),[2],-6.12
same,binding signal (log2 enrichment (interaction score)),[3],-8.02
GGCUAGAACUAGUGGAUCCCCCGGCGCCCGGCGGCUCGAGCCCGGGUAAGUGAACCAAGUCUGCAUGCCGCCGGGCGCCAUGCCUGCAGGUCGACUCUAGAAAACAUG,binding signal (log2 enrichment (interaction score)),[1],< -5.6
same,binding signal (log2 enrichment (interaction score)),[2],-5.4
same,binding signal (log2 enrichment (interaction score)),[3],-7.38
GGCUAGAACUAGUGGAUCCCCCGGCGCCCGGCGGCUCGAGCCCGGGUAAGAUUACAACGUCUGCAUGCCGCCGGGCGCCAUGCCUGCAGGUCGACUCUAGAAAACAUG,binding signal (log2 enrichment (interaction score)),[1],-4.43
same,binding signal (log2 enrichment (interaction score)),[2],-5.24
same,binding signal (log2 enrichment (interaction score)),[5],-1.51

# Some of the entries above in a different format.
sequence	measurement	setting	value
GGCUAGAACUAGUGGAUCCCCCGGCGCCCGGCGGCUCGAGCCCGGGUAAGUUGCAGCGGUCUGCAUGCCGCCGGGCGCCAUGCCUGCAGGUCGACUCUAGAAAACAUG	binding signal (log2 enrichment (interaction score))	[4]	-2.3
same	binding signal (log2 enrichment (interaction score))	[7]	-1.96
